# PubChem BioAssay AID2685 (National Center for Advancing Translational Sciences (NCATS), 2010)
# Values joined by “and” are separate entries in the source; they are usually repeats but may differ in a detail not shown here. Identical values can stand only once. The list shows a part of the results. These are further read-outs of the screen, such as a control signal, another cell line or another target. No call is given for them. Most of these compounds were active or inconclusive in the main read-out, so they are no random draw. Potencies come from curve fits of mixed quality, noted in brackets.
# Experiment: qHTS Assay for Lipid Storage Modulators in Drosophila S3 Cells;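 as to cell number change: cells counted by Cell Tracker Red CMTPX staining in the red channel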
# Details: BODIPY lipid droplet fluorescence, 18-24 h; for cell number change: measured here: cell count max response, cells fed with added oleic acid
# In short: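 Laser-scanning cytometry quantifies lipid droplet accumulation (500–530 nm total intensity; droplet/cell object ratio) in oleic acid-fed (400 uM added) Drosophila S3 cells treated with a concentration series. 20 uM Triacsin C defined 100% inhibition.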
# [1] = measured here: lipid fluorescence (Fed channel) AC50, cells fed with added oleic acid
# [2] = measured here: cell number channel AC50, cells fed with added oleic acid
compound,measurement,setting,value
Cc1ccc(-c2cc(C(=O)Nc3nn[nH]n3)c3ccccc3n2)c(C)c1,cell number change,,2.43%
same,AC50,[1],"461 nM [falling, single point]"
COc1ccccc1N1CCN(C(=O)c2c(-c3c(F)cccc3Cl)noc2C)CC1,cell number change,,-1.1%
same,AC50,[1],"29100 nM [rising, single point]"
Cc1c(NC(=O)C(C)Sc2nccn2C)c(=O)n(-c2ccccc2)n1C (stereo not given),cell number change,,-9.33%
same,AC50,[1],"29100 nM [falling, single point]"
C[C@H](OC(=O)n1ccnc1)[C@@H]1O[C@@]2(C)CCC[C@@H]1O2,cell number change,,3.25%
same,AC50,[2],"3660 nM [falling, single point]"
same,AC50,[1],"2910 nM [falling, single point]"
CS/C(=C/[N+](=O)[O-])Nc1cccc2c1C(C)CC2(C)C (stereo not given),cell number change,,6.56%
Brc1ccc2nc3c(n2c1)CCCC3,cell number change,,3.43%
CCSc1nc(O)cc(=O)n1CC,cell number change,,0.226%
same,AC50,[2],"1300 nM [rising, partial curve]"
same,AC50,[1],"1300 nM [rising, partial curve]"
COc1cccc(C2CC(c3cccc(Br)c3)n3nc(N)nc3N2)c1 (stereo not given),cell number change,,45.1%
same,AC50,[2],"2910 nM [rising, partial curve]"
same,AC50,[1],"1160 nM [rising, partial curve]"
CCN(CC)CC(C(=O)N(CC)CC)P(=O)(c1ccccc1)c1ccccc1 (stereo not given),cell number change,,-26.8%
same,AC50,[2],"580 nM [falling, full curve, poor fit]"
same,AC50,[1],"6510 nM [falling, partial curve]"
CC(=O)c1cccc(CN2CCC(C(=O)Nc3ccc(-c4cccc(C)c4)cc3)CC2)c1,cell number change,,-26.2%
same,AC50,[1],"29100 nM [falling, single point]"
CN(C)C(=O)COC(=O)/C=C/c1cn(-c2ccccc2)nc1-c1cccs1,AC50,[2],"1460 nM [rising, partial curve]"
CCCCOc1ccc(C(=O)Nc2cccc(-n3cnnn3)c2)cc1OC,cell number change,,4.96%
same,AC50,[1],"13000 nM [rising, partial curve]"
Cc1csc(C(=O)O)c1-n1cccc1,cell number change,,-66.8%
same,AC50,[2],"29100 nM [falling, single point]"
O=C(Cc1c[nH]c2ccccc12)Nc1ccccc1N1CCOCC1,cell number change,,-29.2%
same,AC50,[2],"116 nM [rising, partial curve, poor fit]"
Cc1ccc(C(=O)NC(=S)NNC(=O)c2ccccc2)cc1,cell number change,,-10.8%
same,AC50,[1],"29100 nM [falling, single point]"
S=C(Cc1cccnc1)N1CCOCC1,cell number change,,-21.6%
same,AC50,[1],"29.1 nM [falling, partial curve, poor fit]"
Cc1c(Br)cc(C(=O)OC2CCN(C)CC2)c(C)c1C,AC50,[2],"116 nM [falling, full curve]"
same,AC50,[1],"820 nM [falling, full curve]"
Cc1cc(NC(=O)CSc2ccc(-c3ccc(Br)cc3)nn2)no1,cell number change,,100%
same,AC50,[2],"29100 nM [rising, single point]"
same,AC50,[1],"16400 nM [rising, partial curve, poor fit]"
Cc1ccc2nc(SCC(=O)N3c4ccccc4CC3C)c(C)cc2c1 (stereo not given),cell number change,,-13.3%
same,AC50,[2],"6510 nM [rising, single point]"
same,AC50,[1],"3260 nM [rising, partial curve]"
COc1ccc(-c2cc3ccc(OCC(C)=O)cc3oc2=O)cc1,cell number change,,-2.09%
same,AC50,[1],"14600 nM [rising, single point]"
COc1ccc(OC)c(/C(O)=C/C(=O)C(=O)Nc2cc(C)ccc2OC)c1,cell number change,,-1.2%
same,AC50,[1],"731 nM [falling, single point]"
CCOc1nc(-c2ccccc2Cl)nc2ccccc12,cell number change,,-4.68%
same,AC50,[2],"6510 nM [rising, single point]"
CCCCNC(=O)c1ccccc1NC(=O)c1ccc2c(c1)OCO2,cell number change,,65.6%
same,AC50,[2],"2060 nM [falling, partial curve]"
same,AC50,[1],"2060 nM [falling, partial curve]"
CC(OC(=O)c1ccc(-n2cnnn2)cc1)C(=O)Nc1ccccc1F (stereo not given),cell number change,,11.4%
same,AC50,[2],"731 nM [falling, single point]"
same,AC50,[1],"820 nM [falling, partial curve, poor fit]"
Cc1cc(N2CCOCC2)ccc1/C=C1\NC(=O)N(Cc2ccccc2)C1=O,AC50,[1],"2590 nM [rising, partial curve, poor fit]"
O=C1C2C3C=CC(C3)C2C(=O)N1/N=C/c1cn(Cc2ccc(F)cc2)c2ccccc12 (stereo not given),cell number change,,-18.3%
COC(=O)c1ccc(NC(CC(C)C)C(=O)OC)c([N+](=O)[O-])c1 (stereo not given),cell number change,,10.6%
Cc1ccc(C(=O)NCC(=O)NCC(c2cccs2)N2CCOCC2)cc1C (stereo not given),cell number change,,-20.7%
same,AC50,[1],"103 nM [rising, full curve, poor fit]"
Cc1ccc2c(c1)C(O)(CC(=O)/C=C/C=C/c1ccccc1)C(=O)N2 (stereo not given),cell number change,,-22.9%
same,AC50,[1],"2310 nM [rising, single point]"
CC(=O)Nc1cccc(-c2csc(Nc3cc(C)ccn3)n2)c1,AC50,[2],"820 nM [rising, full curve]"
Cc1nc2ccccc2cc1C(=O)N/N=C/c1cccs1,cell number change,,-17%
same,AC50,[2],"103 nM [falling, full curve, poor fit]"
COc1ccccc1CCNC(=O)C(=O)c1cn(CC(=O)N2CCOCC2)c2ccccc12,cell number change,,13.3%
same,AC50,[1],"29100 nM [falling, single point]"
Cc1cc(C)n(-c2ncnc3c2oc2ccccc23)n1,cell number change,,-4.72%
same,AC50,[1],"5.17 nM [rising, full curve, poor fit]"
COc1ccc(CNC(=O)CCCn2c(=S)[nH]c3cc4c(cc3c2=O)OCO4)cc1,cell number change,,121%
same,AC50,[2],"20600 nM [rising, single point]"
same,AC50,[1],"29100 nM [rising, single point]"
O=C(CC1CCCCC1)c1c(O)c2ccccc2oc1=O,AC50,[1],"29100 nM [falling, single point]"
CCCCCOC(=O)C1=C(C)NC(=O)NC1c1ccc([N+](=O)[O-])cc1 (stereo not given),cell number change,,-22.6%
same,AC50,[1],"29100 nM [falling, single point]"
O=c1ccc2cc(S(=O)(=O)Nc3ccccc3F)ccc2o1,cell number change,,-1.66%
C=CCn1c(SCC(=O)NNC(=S)Nc2ccccc2)nnc1-c1ccccc1,cell number change,,5.29%
same,AC50,[1],"820 nM [rising, full curve]"
Cc1ccccc1S(=O)(=O)Nc1ncnc2scc(-c3ccccc3)c12,cell number change,,36.6%
same,AC50,[2],"10300 nM [rising, partial curve]"
same,AC50,[1],"2590 nM [rising, partial curve]"
CCCCC(=O)OCC(=O)c1[nH]c(C)c(C(C)=O)c1C,cell number change,,34.5%
same,AC50,[2],"4110 nM [rising, full curve, poor fit]"
same,AC50,[1],"20600 nM [rising, single point]"
Cc1ccc(-c2nc(-c3cccnc3)sc2CC(=O)Nc2ccc3nc(C)sc3c2)cc1,cell number change,,39.4%
same,AC50,[2],"2910 nM [rising, full curve]"
same,AC50,[1],"1840 nM [rising, partial curve]"
O=C1CC(=O)c2c1cccc2[N+](=O)[O-],AC50,[1],"731 nM [falling, full curve]"
Cc1ccc(C)c(OCC(=O)Nc2nonc2NC(=O)COc2cc(C)ccc2C)c1,cell number change,,-49.9%
same,AC50,[2],"18400 nM [falling, single point]"
same,AC50,[1],"29100 nM [falling, single point]"
Cc1cc(Nc2cccc(F)c2)nc(-c2ccccc2O)n1,cell number change,,-9.63%
same,AC50,[2],"2910 nM [rising, single point]"
O=c1[nH]c(CN2CCCC2)nc2sc3c(c12)CCC3,cell number change,,-11%
same,AC50,[1],"1840 nM [falling, full curve]"
CCOC(=O)c1sc(NC(=O)CN(CC(C)C)CC(C)C)c(C(=O)OCC)c1C,cell number change,,4.03%
same,AC50,[1],"2910 nM [rising, partial curve]"
O=C(CSC1=NS(=O)(=O)c2ccccc21)Nc1ccccc1,cell number change,,-46.3%
same,AC50,[2],"18400 nM [falling, single point]"
same,AC50,[1],"29100 nM [falling, single point]"
COc1ccc(-n2c(=O)[nH]cc(C(=O)Nc3ccc4c(c3)OCCO4)c2=O)cc1OC,cell number change,,27.6%
same,AC50,[1],"8200 nM [rising, partial curve]"
O=C(Nc1cc2c3c(c1)CC(=O)N3CCC2)c1ccccc1C(F)(F)F,cell number change,,-11.1%
CCOc1ccc(NC(=O)Cn2sc3nc(C)cc(C)c3c2=O)cc1,cell number change,,-65.1%
same,AC50,[1],"29100 nM [falling, partial curve, poor fit]"
CC(=O)N[C@@H](Cc1c[nH]c2ccccc12)C(=O)NC1CC1,cell number change,,16.7%
same,AC50,[1],"29100 nM [falling, single point]"
CCN(CC)CC(O)COCCC12CC3CC(CC(C3)C1)C2 (stereo not given),cell number change,,20.2%
same,AC50,[1],"3660 nM [falling, full curve, poor fit]"
CC(C)COc1cccc(C(=O)N(CC(=O)Nc2ccccc2C(F)(F)F)Cc2ccco2)c1,cell number change,,-14.1%
O=[N+]([O-])C(=C1NCCN1)C(Cl)=C(Cl)Cl,cell number change,,-20.3%
same,AC50,[1],"651 nM [falling, full curve, poor fit]"
CCOC(=O)c1c(NC(=O)CSc2nncs2)sc(C)c1-c1ccccc1,cell number change,,16.1%
Cc1cccc(CNc2ncnc3ccc(-c4ccccc4Cl)cc23)c1,cell number change,,6.75% and -2.14%
same,AC50,[2],"4.11 nM [falling, full curve, poor fit]"
same,AC50,[1],"2060 nM [falling, single point]"
COc1ccc(CN2C(=O)c3ccccc3C2C(=O)NCc2cccnc2)c(OC)c1 (stereo not given),cell number change,,25.7%
Oc1ccc(-c2n[nH]c(=S)n2Cc2ccco2)cc1,cell number change,,22.7%
Nc1c(C(=O)NCCc2ccccc2)sc2nc(N3CCOCC3)c3c(c12)CCCC3,cell number change,,24.5%
CCOC(=O)c1cnc(-c2ccccc2)nc1N,cell number change,,92.3%
same,AC50,[2],"29100 nM [rising, single point]"
same,AC50,[1],"29100 nM [rising, single point]"
